About 7,700 (2.3%) of roughly 330,000 compounds were called active. This list was built around the results that the source calls inconclusive (neither active nor inactive); the mix of calls is not that of the screen. Calls follow the shape of the dose curve; as a rule, active = well fitted inhibition curve with a large enough effect; inconclusive = small, poorly fitted or top-dose-only effect, or effect the other way; inactive = flat fitted curve, though single readings scatter. Potencies of inconclusive entries are doubtful fits and often do not repeat.
Assay: qHTS screen for small molecules that inhibit ELG1-dependent DNA repair in human embryonic kidney (HEK293T) cells expressing luciferase-tagged ELG1; also: nearly all actives have a fitted effect of over 55% in size
Conditions: HEK293T ELG1-luciferase reporter, luminescence, 16 h, DNA damage induced by 5-fluorouridine; series mostly up to 46.1 µM
How it was run: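 In this reporter screen, reduction of luminescence relative to DMSO vehicle indicated activity. Compounds and 5-fluorouridine were added together to 2,000 cells per well, incubated for 16 hr at 37 °C, then developed with ONE-Glo.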
Potency is read from the fitted curve at half-maximal effect.

Q: With `CC(=O)Nc1cccc(NC(=O)COc2ccc3c(c2)OCO3)c1` as the molecule, how does the Potency read?
A: Its Potency is inconclusive: 16.4 µM [activator, single point].

Q: With `O=c1c2c(nc(NCCO)n1CC1CCCCC1)-c1ccccc1CC21CCCC1` as the molecule, how does the Potency read?
A: Its Potency is inconclusive: 25.9 µM [inhibitor, partial curve, poor fit].

Q: With `CC(=O)Nc1cccc(NC(=S)Nc2ccc(F)cc2F)c1` as the molecule, how does the Potency read?
A: Its Potency is “inactive”.

Q: With `CC12CCC(=O)N1C(C(=O)N1CCN(S(=O)(=O)c3ccc(F)c(F)c3)CC1)CS2` (stereo not drawn) as the molecule, how does the Potency read?
A: Its Potency is “inactive”.

Q: Which Potency does the source give for `Cn1cccc1C1C(C#N)=C(N)OC2=C1C(=O)CCC2` (stereo not drawn) here?
A: Its Potency is “inactive”.

Q: For `CC1(C)C2CCC1(C)C(OC(=O)C[n+]1ccccc1N)C2` (stereo not drawn), which Potency is on record?
A: The Potency was inconclusive: 29.1 µM [activator, partial curve, poor fit].

Q: With `Oc1ccc2c(c1)c1c3n2CCNC3CCC1` (stereo not drawn) as the molecule, how does the Potency read?
A: Its Potency is “inactive”.

Q: Which Potency does the source give for `CC1Oc2ccccc2N(CC(=O)c2ccc(F)cc2)C1=O` (stereo not drawn) here?
A: Its Potency is “inactive”.

Q: With `COCCNC(=O)c1ccc2c(c1)ncn2-c1ccc(F)c(F)c1` as the molecule, how does the Potency read?
A: Its Potency is inconclusive: 20.6 µM [activator, single point].

Q: Which Potency does the source give for `N#Cc1nc(-c2ccccc2F)oc1N1CCCC1` here?
A: Its Potency is inconclusive: 16.4 µM [activator, single point].

Q: For `Cc1sc2nc(-c3cccnc3)nc(Cl)c2c1-c1ccccc1`, which Potency is on record?
A: Its Potency is inconclusive: 20.6 µM [activator, partial curve].

Q: With `O=C(c1nnc(Cc2ccc(Cl)cc2)o1)N1CCOCC1` as the molecule, how does the Potency read?
A: Its Potency is “inactive”.

Q: Which Potency does the source give for `OCCNNC(=S)NC1CC2C=CC1C2` (stereo not drawn) here?
A: Its Potency is “inactive”.

Q: With `N#Cc1ccc(-c2csc(NNC(=O)c3ccccc3)n2)cc1` as the molecule, how does the Potency read?
A: Its Potency is inconclusive: 12.6 µM [inhibitor, single point].

Q: With `CCOc1ccc(C(=O)NC2CCN(S(C)(=O)=O)CC2)cc1` as the molecule, how does the Potency read?
A: Its Potency is inconclusive: 18.4 µM [activator, partial curve].

Q: For `CC1(COS(N)(=O)=O)CCCCC1`, which Potency is on record?
A: The Potency was “inactive”.

Q: Which Potency does the source give for `Cc1onc(-c2ccc3c(c2)OCO3)c1-c1ccc2[nH]ccc2c1` here?
A: Its Potency is inconclusive: 3.66 µM [inhibitor, partial curve, poor fit].

Q: With `COc1ccc(C2CC(c3ccc(Cl)cc3Cl)Nc3nc(N)nn32)cc1` (stereo not drawn) as the molecule, how does the Potency read?
A: Its Potency is “inactive”.

Q: With `CCC(=O)Nc1ccc(NC(=O)C23CC4CC(CC(C4)C2)C3)cn1` as the molecule, how does the Potency read?
A: Its Potency is inconclusive: 11.2 µM [activator, partial curve, poor fit].

Q: For `CCn1cc(C(=O)N2CCN(c3ccccn3)CC2)c(=O)c2cc(S(=O)(=O)N(C)C3CCCCC3)ccc21`, which Potency is on record?
A: Its Potency is inconclusive: 20.6 µM [inhibitor, partial curve, poor fit].

Q: For `CC[C@]12c3[nH]c4ccc(Cl)cc4c3CCN1C(=O)[C@@H](CC(=O)NCc1cccc(C(F)(F)F)c1)C[C@@H]2C(=O)N1CCN(C(=O)c2ccco2)CC1`, which Potency is on record?
A: Its Potency is active: 13 µM.

Q: Which Potency does the source give for `Cc1cc(Cl)cc2sc(NC(=O)c3ccco3)nc12` here?
A: Its Potency is inconclusive: 7.3 µM [activator, partial curve].

Q: Which Potency does the source give for `COc1ccc(NC(=O)c2cccc(NS(=O)(=O)c3ccccc3)c2)cc1` here?
A: Its Potency is “inactive”.

Q: Which Potency does the source give for `Cc1ccc(C)c(OC(=O)c2cccc(S(=O)(=O)N3CCN(C)CC3)c2)c1` here?
A: Its Potency is “inactive”.

Q: For `CCC(CC)C(=O)N(CCc1ccc(OC)cc1)Cc1nc2ccccc2c(=O)[nH]1`, which Potency is on record?
A: The Potency was active: 23.1 µM.

Q: For `O=C(Nc1nc2ccccc2[nH]1)C12CC3CC(CC(C3)C1)C2`, which Potency is on record?
A: Its Potency is inconclusive: 2.06 µM [activator, partial curve].

Q: For `CN1C(=O)NC(c2cccc([N+](=O)[O-])c2)C2=C1CCCC2=O` (stereo not drawn), which Potency is on record?
A: The Potency was “inactive”.

Q: For `O=c1c2ccccc2c(C=NCCCN2CCOCC2)c(O)n1Cc1ccccc1`, which Potency is on record?
A: Its Potency is “inactive”.

Q: With `CC(=O)Nc1ccc(S(=O)(=O)N2CCN(C(=O)c3ncoc3-c3ccc(F)cc3)CC2)cc1` as the molecule, how does the Potency read?
A: Its Potency is inconclusive: 25.9 µM [inhibitor, partial curve, poor fit].

Q: For `O=C(C[C@@H]1C/C=C\CCC(=O)O[C@H](c2ccccc2)CNC1=O)N[C@H](CO)Cc1ccccc1`, which Potency is on record?
A: Its Potency is inconclusive: 29.1 µM [activator, partial curve, poor fit].

Q: For `CCC1CCCCN1S(=O)(=O)c1ccc(NC(=O)c2nc(S(C)(=O)=O)ncc2Cl)cc1` (stereo not drawn), which Potency is on record?
A: Its Potency is inconclusive: 29.1 µM [inhibitor, single point].

Q: With `COc1cc(OC)cc(C(=O)Nc2ccccc2C(=O)N2CCCC2)c1` as the molecule, how does the Potency read?
A: Its Potency is inconclusive: 23.1 µM [activator, partial curve].

Q: Which Potency does the source give for `NC(=S)NN=C(Cc1ccccc1)Cc1ccccc1` here?
A: Its Potency is inconclusive: 29.1 µM [inhibitor, single point].

Q: With `Nc1nc(Cl)cc(Sc2ccc3ccccc3c2)n1` as the molecule, how does the Potency read?
A: The Potency was “inactive”.

Q: With `Cc1cc(C)c(OCCCCN(C)Cc2ccccc2)c(C)c1` as the molecule, how does the Potency read?
A: The Potency was “inactive”.

Q: Which Potency does the source give for `Cc1ccc(NC(=S)NC(=O)/C=C/c2ccc(Cl)cc2)cc1` here?
A: Its Potency is inconclusive: 16.4 µM [activator, single point].

Q: With `Cc1nn(-c2nnc(C)c(=O)[nH]2)c(C)c1SCC(=O)Nc1ccc(C(C)C)cc1` as the molecule, how does the Potency read?
A: Its Potency is “inactive”.

Q: Which Potency does the source give for `COc1ccccc1Oc1ccc(NC(=O)c2ccccc2)cc1` here?
A: The Potency was inconclusive: 4.11 µM [activator, partial curve, poor fit].

Q: With `COc1ccc(C(=O)Nc2ccc(C(F)(F)F)n(C)c2=O)cc1` as the molecule, how does the Potency read?
A: The Potency was inconclusive: 11.6 µM [activator, partial curve].

Q: Which Potency does the source give for `CCCS(=O)(=O)Nc1ccc(N2CCCCC2)c(S(=O)(=O)Nc2ccccc2OC)c1` here?
A: The Potency was “inactive”.

Q: With `O=C(NC1CCCCC1)c1ccc(S(=O)(=O)c2ccccc2Cl)c([N+](=O)[O-])c1` as the molecule, how does the Potency read?
A: Its Potency is active: 5.8 µM.

Q: Which Potency does the source give for `CC(=O)Nc1ccc(OCC(O)Cn2cncn2)cc1` (stereo not drawn) here?
A: Its Potency is “inactive”.

Q: Which Potency does the source give for `O=C(CSc1ccc(-c2cccnc2)nn1)Nc1ccc(F)c(F)c1` here?
A: Its Potency is active: 13 µM.

Q: Which Potency does the source give for `O=C(NCc1ccccc1)/C(=C\c1ccc(O)cc1)NC(=O)c1ccco1` here?
A: The Potency was inconclusive: 18.3 µM [activator, single point].

Q: For `O=S(=O)(c1cccs1)N1CCN(S(=O)(=O)c2cccs2)CC1`, which Potency is on record?
A: The Potency was “inactive”.

Q: With `O=C(CSc1nnc(-c2ccc(S(=O)(=O)N3CCCC3)cc2)o1)NCc1ccccc1` as the molecule, how does the Potency read?
A: Its Potency is inconclusive: 2.31 µM [inhibitor, full curve, poor fit].

Q: Which Potency does the source give for `CCSc1nnc(SCC(=O)c2c(N)n(C)c(=O)n(C)c2=O)s1` here?
A: The Potency was “inactive”.

Q: With `COc1ccccc1Nc1nc(N)nc(CN2CCC(Cc3ccccc3)CC2)n1` as the molecule, how does the Potency read?
A: The Potency was “inactive”.

From PubChem BioAssay AID504467 (National Center for Advancing Translational Sciences (NCATS), 2011)
